The values below come from patent publication US20190185531A1.

Results are given in words; binding and its absence hold for the method and conditions named. Some results given as binding are weak or reduced against the parent protein; the word gives no strength. Where a sequence is shown, tags or fusion partners need not be part of it.

For test [1], the target named is T1, human Bfl-1 (c-myc-tagged) (human) (UniProt Q16548).
T1 sequence (looked up): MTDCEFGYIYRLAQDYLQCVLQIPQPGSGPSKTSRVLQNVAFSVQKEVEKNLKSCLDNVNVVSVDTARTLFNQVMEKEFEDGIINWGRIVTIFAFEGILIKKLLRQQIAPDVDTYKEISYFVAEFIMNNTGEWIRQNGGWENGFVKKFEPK
The test is described as follows: competition fluorescence anisotropy (FIG. 2I). Background: In fluorescence polarisation assays a small probe gives low polarisation when free and higher when bound to something large.

Test [2] has as its target T1, human Bfl-1 (c-myc-tagged) (human). The test is described as follows: competition fluorescence polarization with fluoresceinated Bim peptide.
Test [3] has the same target. As to the kind of experiment: competition fluorescence polarization with fluoresceinated Bim peptide (FIG. 7, FIG. 8).
Test [4] has the same target. The test is described as follows: assay not described.

On to QWIREIAAGLRRFADILNAQVER (N-terminal acetylation; C-terminal amidation) [FS3], for which the binding entry in test [1], in test [2] and in test [3] was “binds” in each case.
Take QWVREIAAGLRRAAEDVNAQVER [FS2 with glutamate at position F3 (D3f)]: the binding entry in test [4] is listed as “binds”.
The same measure, in the same setting: as for QWVREIAAGLRRAANDVNAQVER [FS2 with asparagine at position F3 (D3f)], the entry is “binds”.
Consider QWVREIAAGLRLAADNVNAQLER (N-terminal acetylation; C-terminal amidation) [FS1], for which the binding result in test [1], in test [2] and in test [3] was “binds” throughout.
As for QWVREIAAGLRRAAADVNAQVER [FS2 with alanine at position F3 (D3f)], the binding result in test [4] was “binds”.
On the same count and under the same terms, as for QWVREIAAGLRRAASDVNAQVER [FS2 with serine at position F3 (D3f)], the entry is “binds”.
The same measure, in the same setting: for QWVREIAAGLRRAAHDVNAQVER [FS2 with histidine at position F3 (D3f)] the value was “binds”.
The same measure, in the same setting: for QWVREIAAGLRRAAYDVNAQVER [FS2 with tyrosine at position F3 (D3f)] the value was “binds”.
